This is an account of results in the supplement of paper PMC10849652.

Protein sequences, listed by entry. Tags and fused reporters are not part of them. Lines headed by an entry give the natural chain unless they say otherwise; changes in a name come on top.
UniProt Q9UQ53: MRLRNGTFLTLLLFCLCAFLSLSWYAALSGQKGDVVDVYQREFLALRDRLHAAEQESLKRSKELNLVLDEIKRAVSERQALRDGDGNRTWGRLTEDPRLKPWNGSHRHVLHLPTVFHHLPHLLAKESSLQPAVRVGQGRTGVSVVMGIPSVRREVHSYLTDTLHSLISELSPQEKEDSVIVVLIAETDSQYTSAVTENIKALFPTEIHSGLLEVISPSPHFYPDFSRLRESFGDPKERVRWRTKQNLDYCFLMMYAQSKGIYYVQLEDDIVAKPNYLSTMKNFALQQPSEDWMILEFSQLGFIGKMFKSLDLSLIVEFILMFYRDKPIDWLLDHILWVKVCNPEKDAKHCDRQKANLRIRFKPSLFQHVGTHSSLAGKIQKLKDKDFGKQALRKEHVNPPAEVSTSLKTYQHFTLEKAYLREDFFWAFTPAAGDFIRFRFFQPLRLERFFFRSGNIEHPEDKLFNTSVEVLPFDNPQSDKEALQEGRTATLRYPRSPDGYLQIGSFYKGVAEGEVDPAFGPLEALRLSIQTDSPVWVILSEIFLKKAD
UniProt Q9NR56: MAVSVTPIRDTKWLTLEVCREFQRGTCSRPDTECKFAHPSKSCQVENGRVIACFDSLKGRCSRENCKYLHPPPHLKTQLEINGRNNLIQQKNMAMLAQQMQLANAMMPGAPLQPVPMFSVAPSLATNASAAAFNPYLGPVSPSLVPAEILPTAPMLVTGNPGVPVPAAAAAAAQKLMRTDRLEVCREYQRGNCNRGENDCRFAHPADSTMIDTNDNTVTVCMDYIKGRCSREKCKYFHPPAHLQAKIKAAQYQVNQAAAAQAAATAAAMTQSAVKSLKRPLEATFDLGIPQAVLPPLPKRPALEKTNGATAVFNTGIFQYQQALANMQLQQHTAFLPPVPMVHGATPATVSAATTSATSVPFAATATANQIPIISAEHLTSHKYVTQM
UniProt Q14814: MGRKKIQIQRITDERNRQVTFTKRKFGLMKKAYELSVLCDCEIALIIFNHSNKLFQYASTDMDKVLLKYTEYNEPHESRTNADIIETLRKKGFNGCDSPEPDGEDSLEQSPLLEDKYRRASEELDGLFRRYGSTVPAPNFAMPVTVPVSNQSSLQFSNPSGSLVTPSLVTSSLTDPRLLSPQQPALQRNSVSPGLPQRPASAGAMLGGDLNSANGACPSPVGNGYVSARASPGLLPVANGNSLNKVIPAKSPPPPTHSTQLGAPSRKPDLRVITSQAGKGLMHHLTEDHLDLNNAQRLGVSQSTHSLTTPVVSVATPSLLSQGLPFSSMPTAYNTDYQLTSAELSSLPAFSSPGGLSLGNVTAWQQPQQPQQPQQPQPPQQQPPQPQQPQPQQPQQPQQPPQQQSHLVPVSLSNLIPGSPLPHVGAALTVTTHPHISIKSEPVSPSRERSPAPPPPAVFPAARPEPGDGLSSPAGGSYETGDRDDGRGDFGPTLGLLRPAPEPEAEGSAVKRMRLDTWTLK
UniProt P25205: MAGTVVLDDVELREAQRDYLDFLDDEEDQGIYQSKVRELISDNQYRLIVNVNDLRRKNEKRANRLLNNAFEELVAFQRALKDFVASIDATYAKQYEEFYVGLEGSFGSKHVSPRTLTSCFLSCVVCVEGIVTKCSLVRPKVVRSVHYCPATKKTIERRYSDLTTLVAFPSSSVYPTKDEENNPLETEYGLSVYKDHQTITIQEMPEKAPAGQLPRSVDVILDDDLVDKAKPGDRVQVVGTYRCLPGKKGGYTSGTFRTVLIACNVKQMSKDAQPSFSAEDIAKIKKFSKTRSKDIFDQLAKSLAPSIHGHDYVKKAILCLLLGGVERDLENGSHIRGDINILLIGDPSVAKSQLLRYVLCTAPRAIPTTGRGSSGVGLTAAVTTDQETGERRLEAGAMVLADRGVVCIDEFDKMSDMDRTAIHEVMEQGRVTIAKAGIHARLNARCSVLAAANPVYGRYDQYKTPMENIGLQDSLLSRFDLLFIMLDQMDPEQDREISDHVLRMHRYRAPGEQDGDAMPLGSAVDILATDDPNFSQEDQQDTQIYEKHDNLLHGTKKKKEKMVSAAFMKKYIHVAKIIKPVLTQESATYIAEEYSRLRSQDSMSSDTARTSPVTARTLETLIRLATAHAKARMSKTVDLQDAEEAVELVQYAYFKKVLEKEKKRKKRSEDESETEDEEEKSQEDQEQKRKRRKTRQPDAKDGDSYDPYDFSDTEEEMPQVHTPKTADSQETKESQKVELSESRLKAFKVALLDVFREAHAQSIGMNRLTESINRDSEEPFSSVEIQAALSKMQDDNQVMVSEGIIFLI
UniProt Q8WXB1: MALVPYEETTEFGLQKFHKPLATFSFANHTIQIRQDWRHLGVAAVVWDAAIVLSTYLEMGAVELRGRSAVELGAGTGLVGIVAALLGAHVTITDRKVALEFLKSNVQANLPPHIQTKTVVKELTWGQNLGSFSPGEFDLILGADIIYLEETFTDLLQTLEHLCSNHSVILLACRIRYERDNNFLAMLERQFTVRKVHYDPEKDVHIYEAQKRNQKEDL
UniProt P33992: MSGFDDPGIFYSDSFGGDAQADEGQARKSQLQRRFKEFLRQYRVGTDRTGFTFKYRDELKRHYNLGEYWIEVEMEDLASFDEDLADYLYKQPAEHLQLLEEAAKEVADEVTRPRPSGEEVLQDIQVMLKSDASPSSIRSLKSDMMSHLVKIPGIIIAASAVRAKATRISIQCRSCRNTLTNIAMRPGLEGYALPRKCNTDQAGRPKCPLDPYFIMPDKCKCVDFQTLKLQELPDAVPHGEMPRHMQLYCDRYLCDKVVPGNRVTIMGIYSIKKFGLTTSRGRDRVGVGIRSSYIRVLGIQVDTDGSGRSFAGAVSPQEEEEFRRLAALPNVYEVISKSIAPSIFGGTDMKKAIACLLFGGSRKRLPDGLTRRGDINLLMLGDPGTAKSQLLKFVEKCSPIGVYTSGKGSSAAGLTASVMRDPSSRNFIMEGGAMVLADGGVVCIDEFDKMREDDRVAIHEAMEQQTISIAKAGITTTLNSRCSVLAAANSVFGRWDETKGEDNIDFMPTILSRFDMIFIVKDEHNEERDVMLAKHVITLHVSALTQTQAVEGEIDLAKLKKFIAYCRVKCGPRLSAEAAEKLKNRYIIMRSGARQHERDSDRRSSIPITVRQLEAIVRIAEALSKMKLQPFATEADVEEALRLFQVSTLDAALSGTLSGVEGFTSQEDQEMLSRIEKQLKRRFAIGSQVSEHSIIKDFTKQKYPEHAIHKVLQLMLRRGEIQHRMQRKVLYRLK
UniProt Q15528: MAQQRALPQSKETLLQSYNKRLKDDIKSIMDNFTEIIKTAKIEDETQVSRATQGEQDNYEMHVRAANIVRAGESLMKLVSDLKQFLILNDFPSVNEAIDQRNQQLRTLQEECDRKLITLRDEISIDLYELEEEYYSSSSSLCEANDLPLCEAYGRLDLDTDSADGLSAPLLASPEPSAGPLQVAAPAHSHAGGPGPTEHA
UniProt P23368: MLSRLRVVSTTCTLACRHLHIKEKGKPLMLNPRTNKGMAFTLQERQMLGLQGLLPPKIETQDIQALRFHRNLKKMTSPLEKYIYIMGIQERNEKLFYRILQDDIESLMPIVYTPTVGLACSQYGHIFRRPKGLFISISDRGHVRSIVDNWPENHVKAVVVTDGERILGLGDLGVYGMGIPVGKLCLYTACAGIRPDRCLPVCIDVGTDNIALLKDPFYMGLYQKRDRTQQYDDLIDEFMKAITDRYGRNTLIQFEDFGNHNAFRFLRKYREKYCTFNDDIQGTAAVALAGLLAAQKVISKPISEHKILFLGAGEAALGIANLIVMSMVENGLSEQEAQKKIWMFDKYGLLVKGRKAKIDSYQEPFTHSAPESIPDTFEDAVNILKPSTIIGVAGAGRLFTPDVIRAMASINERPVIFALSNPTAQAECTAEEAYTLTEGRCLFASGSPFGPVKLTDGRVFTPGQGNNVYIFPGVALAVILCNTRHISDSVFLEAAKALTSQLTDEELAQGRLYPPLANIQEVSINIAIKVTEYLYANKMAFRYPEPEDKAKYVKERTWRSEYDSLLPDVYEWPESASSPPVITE
UniProt Q9BTE3: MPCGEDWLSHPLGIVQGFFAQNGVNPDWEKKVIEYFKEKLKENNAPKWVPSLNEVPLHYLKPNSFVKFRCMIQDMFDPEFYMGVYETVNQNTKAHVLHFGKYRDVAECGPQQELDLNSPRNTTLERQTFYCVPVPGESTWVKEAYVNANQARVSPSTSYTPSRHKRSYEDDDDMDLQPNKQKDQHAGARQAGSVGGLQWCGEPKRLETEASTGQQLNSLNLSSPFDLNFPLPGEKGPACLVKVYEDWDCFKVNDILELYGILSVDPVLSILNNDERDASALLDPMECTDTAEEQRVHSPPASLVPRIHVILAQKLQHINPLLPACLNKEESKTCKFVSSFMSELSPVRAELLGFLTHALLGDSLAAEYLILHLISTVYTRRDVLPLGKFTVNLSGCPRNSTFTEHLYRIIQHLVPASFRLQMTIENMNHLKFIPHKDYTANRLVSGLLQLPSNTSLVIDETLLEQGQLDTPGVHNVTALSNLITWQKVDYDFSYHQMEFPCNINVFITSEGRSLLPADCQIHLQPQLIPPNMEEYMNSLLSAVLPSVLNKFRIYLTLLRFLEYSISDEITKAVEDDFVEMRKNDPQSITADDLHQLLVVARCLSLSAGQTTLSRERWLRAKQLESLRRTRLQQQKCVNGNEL
UniProt Q8IWA4: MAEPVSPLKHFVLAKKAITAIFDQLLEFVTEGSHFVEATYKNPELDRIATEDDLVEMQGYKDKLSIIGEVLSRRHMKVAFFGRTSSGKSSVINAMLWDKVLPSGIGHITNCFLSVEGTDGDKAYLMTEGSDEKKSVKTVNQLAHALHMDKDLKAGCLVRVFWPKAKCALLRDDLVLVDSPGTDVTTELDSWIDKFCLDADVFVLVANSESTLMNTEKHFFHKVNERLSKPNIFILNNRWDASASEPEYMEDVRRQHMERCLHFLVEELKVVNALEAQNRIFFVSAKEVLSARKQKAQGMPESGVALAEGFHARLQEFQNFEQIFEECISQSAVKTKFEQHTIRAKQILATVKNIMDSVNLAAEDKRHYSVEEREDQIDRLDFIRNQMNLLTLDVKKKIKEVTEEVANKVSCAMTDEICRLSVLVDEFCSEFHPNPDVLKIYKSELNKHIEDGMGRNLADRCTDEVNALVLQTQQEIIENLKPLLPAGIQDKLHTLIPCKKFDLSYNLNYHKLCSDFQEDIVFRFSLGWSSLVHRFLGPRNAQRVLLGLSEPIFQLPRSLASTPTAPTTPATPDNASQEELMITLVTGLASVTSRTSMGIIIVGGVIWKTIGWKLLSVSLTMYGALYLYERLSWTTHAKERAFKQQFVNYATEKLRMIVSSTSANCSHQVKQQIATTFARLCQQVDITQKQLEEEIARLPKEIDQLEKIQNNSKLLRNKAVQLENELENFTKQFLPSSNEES
UniProt Q7Z434: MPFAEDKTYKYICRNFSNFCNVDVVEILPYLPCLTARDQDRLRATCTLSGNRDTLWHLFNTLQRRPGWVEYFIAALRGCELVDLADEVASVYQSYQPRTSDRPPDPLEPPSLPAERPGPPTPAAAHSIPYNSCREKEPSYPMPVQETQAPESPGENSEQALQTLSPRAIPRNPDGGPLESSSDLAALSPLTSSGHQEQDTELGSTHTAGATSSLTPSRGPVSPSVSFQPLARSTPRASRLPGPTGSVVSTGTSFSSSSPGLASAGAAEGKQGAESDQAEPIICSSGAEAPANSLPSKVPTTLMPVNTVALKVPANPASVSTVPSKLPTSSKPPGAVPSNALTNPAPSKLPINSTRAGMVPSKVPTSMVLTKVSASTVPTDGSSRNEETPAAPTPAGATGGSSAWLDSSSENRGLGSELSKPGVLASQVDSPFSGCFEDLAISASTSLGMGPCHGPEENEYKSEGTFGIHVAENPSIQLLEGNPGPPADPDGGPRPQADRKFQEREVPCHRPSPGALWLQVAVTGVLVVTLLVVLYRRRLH
UniProt Q9Y316: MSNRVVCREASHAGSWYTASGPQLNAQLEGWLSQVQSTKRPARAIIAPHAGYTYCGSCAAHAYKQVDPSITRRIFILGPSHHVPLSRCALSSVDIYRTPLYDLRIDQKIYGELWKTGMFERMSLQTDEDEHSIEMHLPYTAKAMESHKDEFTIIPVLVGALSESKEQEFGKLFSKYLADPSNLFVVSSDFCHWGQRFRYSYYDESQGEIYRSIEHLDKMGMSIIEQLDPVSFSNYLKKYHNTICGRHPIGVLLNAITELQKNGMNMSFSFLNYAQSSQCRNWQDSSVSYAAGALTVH
UniProt O14880: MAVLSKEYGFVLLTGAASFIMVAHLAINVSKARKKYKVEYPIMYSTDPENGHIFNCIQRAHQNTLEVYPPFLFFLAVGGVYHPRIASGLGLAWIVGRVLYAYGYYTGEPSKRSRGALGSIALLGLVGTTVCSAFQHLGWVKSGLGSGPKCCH
UniProt Q9ULC4: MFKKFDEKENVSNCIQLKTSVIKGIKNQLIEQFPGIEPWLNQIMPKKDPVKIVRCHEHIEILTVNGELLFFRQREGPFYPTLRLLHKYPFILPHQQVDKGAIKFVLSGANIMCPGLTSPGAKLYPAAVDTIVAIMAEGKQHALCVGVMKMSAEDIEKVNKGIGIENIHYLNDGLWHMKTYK

Some of the results follow.

Compound in the assay: C1CCN(C1)C(=O)NC2=CC=CC(=C2)NC3=NC=C(C(=N3)NCCC4=CN=CN4)Br
The experiment in a line: log2 fold change, soluble protein after heating vs DMSO (PISA); higher = thermal stabilisation; K562 cells, 10 uM, 30 min; active = over 0.2 and 3.5 SD of the protein, either way, in both replicates (recomputed). In a few lines:
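For each measurement, 10 μM compound was applied for 30 min to K562 cells at 2×10^6 cells/mL. Aliquots were heated for 3 min across 48°C-58°C, pooled, and extracted in PBS with 0.5% NP-40 at 4°C; the supernatant after 21,000xg for 90 min was soluble protein. This was quantified by TMTpro 16plex LC-MS/MS with channel sums equalised, and thermal stability was reported relative to control samples from duplicates, on a log2 fold-change scale.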
In the case of MGAT4B isoform 3 (UniProt Q9UQ53), the log2 fold change is inactive: -0.008. With MBNL1 (UniProt Q9NR56) the figure was inactive: 0.036; with MEF2D (UniProt Q14814), inactive: -0.029; with MFSD10 (UniProt Q14728), inactive: -0.046. With MCAM (UniProt P43121) the figure was inactive: -0.031; with METTL1 (UniProt Q9UBP6), inactive: 0.05; with MECP2 isoform 2 (UniProt P51608), inactive: 0.052. To MCM2 (UniProt P49736) belongs inactive: -0.025; to MCM3 isoform 2 (UniProt P25205), inactive: -0.012. Turning to METTL21A (UniProt Q8WXB1), the log2 fold change was inactive: -0.091. Turning to MDN1 (UniProt Q9NU22), the log2 fold change was inactive: -0.025. With MGAT1 (UniProt P26572) the figure was inactive: -0.031; with METAP1D (UniProt Q6UB28), inactive: -0.018. Turning to MED20 (UniProt Q9H944), the log2 fold change is inactive: -0.014. For the target METTL14 (UniProt Q9HCE5), the log2 fold change is inactive: 0.022. With MEAK7 (UniProt Q6P9B6) the figure was inactive: -0.042; with MCRIP1 (UniProt I3L4Q0), inactive: -0.009; with MCM5 (UniProt P33992), inactive: -0.028. MCUB (UniProt Q9NWR8): the log2 fold change was inactive: 0.044. On to MED22 (UniProt Q15528), for which the log2 fold change is inactive: -0.156. With ME2 (UniProt P23368) the figure was inactive: 0.008; with MBOAT1 (UniProt Q6ZNC8), inactive: -0.071. To MDC1 (UniProt Q14676) belongs inactive: -0.139; to MCMBP (UniProt Q9BTE3), inactive: -0.068; to MATR3 (UniProt P43243), inactive: 0.211. With MFN1 (UniProt Q8IWA4) the figure was inactive: 0.025; with MAST4 (UniProt O15021), inactive: -0.007; with MED18 (UniProt Q9BUE0), inactive: 0.002. On to MAT2A (UniProt P31153), for which the log2 fold change was inactive: 0.026. As to MAVS (UniProt Q7Z434), the log2 fold change was inactive: -0.014. With MEMO1 (UniProt Q9Y316) the figure was inactive: -0.008; with MGST3 (UniProt O14880), inactive: 0.019.

Turning to MED15 (UniProt Q96RN5), the log2 fold change is inactive: 0.025. With MCFD2 (UniProt Q8NI22) the figure was inactive: -0.029; with MARS2 (UniProt Q96GW9), inactive: -0.001; with MED14 (UniProt O60244), inactive: -0.039. To MFGE8 (UniProt Q08431) belongs inactive: -0.041. Turning to MCTS1 isoform 3 (UniProt Q9ULC4), the log2 fold change is inactive: 0.012. To MCM6 (UniProt Q14566) belongs inactive: -0.004.
